# Test results: patent publication US20120178796A1, “SPLICE VARIANTS” (priority 2009, published 2012)
# Test: Protein half-life by time course after cycloheximide inhibition of protein synthesis
# Assay type: cell-based, human
# Settings: after cycloheximide (CHX); HCT116 cells
substance,measurement,value
SIRT1 FL: full length SIRT1 protein,protein half-life,> 9 h
